# Results: PubChem BioAssay AID588499 (NMMLSC, 2011)
# About 610 (0.17%) of roughly 360,000 compounds were called active. The inconclusive results got no clear call from the source; some entries with a clear call stand among them for comparison. Rule as the data show it: active = inhibition above about 30%; inconclusive = no clear call, values can overlap the other calls; inactive = below that.
# System: Botulinum neurotoxin type A light chain protease (Clostridium botulinum A str. ATCC 3502)
# Experiment: blockers of BoNT/A LC substrate cleavage – biochemical, flow cytometry, MLPCN library, primary screen (AID 588499); also: plate controls were buffer without enzyme for full effect and enzyme alone for no effect
# Details: multiplex microsphere protease substrate cleavage, at 10 µM, stronger effect = higher value
row,Compound,inhibition
1,CC(C)c1ccc(OCC(=O)Nc2c3c(nn2C(C)(C)C)CS(=O)(=O)C3)cc1,inconclusive: -1.5%
2,CC(=O)N1CCN(c2ccc(NC(=S)NC(=O)c3ccc(C)c([N+](=O)[O-])c3)cc2)CC1,inconclusive: 8.2%
3,Cc1ccc(NC(=S)N2CCN(C(=O)C3CCCO3)CC2)c(C)c1 (configuration not stated),inconclusive: 0%
4,COC(=O)c1ccccc1NC(=O)N1CCN(C/C=C/c2ccccc2)CC1,inactive: 0.4%
5,Cc1ccc(S(=O)(=O)CC(C)(O)CS(=O)(=O)c2ccc(C)cc2)cc1,inconclusive: -10%
6,CCCC(=O)Nc1cccc(NC(=O)c2ccc(C)c([N+](=O)[O-])c2)c1,inconclusive: 2.7%
7,COc1ccc(OC)c(NC(=O)Cc2coc3cc(C)cc(C)c23)c1,inconclusive: 0.7%
8,O=C(NC1CCCCC1)Oc1cc2oc(=O)sc2cc1Br,inconclusive: 5.1%
9,O=C(NC(=O)c1cccc(F)c1)Nc1nc(-c2ccc(F)cc2)cc(C(F)(F)F)n1,inactive: 0.4%
10,COc1ccccc1-c1nc2cc3ccccc3cc2nc1-c1ccccc1,active: 47.5%
11,COc1cccc(OC)c1C(=O)Nn1c(C2CCC2)nc2ccccc2c1=O,inconclusive: 8.1%
12,c1ccc2c(C3=NNC(=NC4CC4)SC3)c[nH]c2c1,active: 40.6%
13,C(=N\n1cnnc1)/c1ccc2ncccc2c1,inconclusive: 6.8%
14,Cc1cc(C)c2nc(-c3ccccn3)cc(C(=O)n3cccn3)c2c1,inactive: 1.9%
15,N#CC(=C=[N-])/C=C(\C(=O)c1ccccc1)[n+]1ccccc1,inconclusive: -37.4%
16,Cc1nc2ccccc2n1CCc1nc2c3ccccc3nc(=S)n2[nH]1,inconclusive: -2.6%
17,Cc1cc(C)cc(OCC(=O)Nc2nonc2NC(=O)COc2cc(C)cc(C)c2)c1,inconclusive: 6.7%
18,OC(COc1c(F)cc(Br)cc1F)CN1CCc2ccccc2C1 (configuration not stated),inconclusive: 1.4%
19,Cn1cnnc1SCC(=O)n1c2ccccc2c2ccccc21,inactive: 0%

row,Compound,inhibition
1,CCOC(=O)c1c2c([nH]c(=S)c1C#N)CCCC2,inconclusive: -2.2%
2,CCOC(=O)c1sc(CS(=O)(=O)c2ccc(Cl)cc2)nc1C,inconclusive: -29.5%
3,O=C(CN1C(=O)NC2(CCCC2)C1=O)N1CCN(C(=O)c2ccco2)CC1,inactive: 0.6%
4,CCCCN1C[C@H](C)[C@@H](CC(=O)Nc2ccccc2)C1=O,inactive: -0.2%
5,COc1ccc(S(=O)(=O)Cc2ccc(C(=O)NCc3ccccc3OC)o2)cc1,inactive: 0.5%
6,CN(N=Nc1nc[nH]c1C(N)=O)C1CCCCC1,inactive: 1.5%
7,Brc1ccc(-c2csc(NNC3=NCCCCC3)n2)cc1,inactive: 0.3%
8,COc1cc(Cl)ccc1OC1(C)CCN(Cc2ccc(-c3ccccn3)cc2)C1 (configuration not stated),inactive: -0.2%
9,Cc1cccc(C)c1NC(=O)NNC(=O)c1cc(C(C)(C)C)nn1Cc1ccccc1,inconclusive: 1%
10,COc1ccccc1C(=O)O/N=C(\N)c1ccccn1,inconclusive: -4%
11,COc1ccccc1N1CCN(Cc2ccc3c(c2)OCO3)CC1,inconclusive: 7.5%
12,Cc1onc(-c2ccccc2Cl)c1C(=O)NCc1cccnc1,inconclusive: 10%
13,COc1ccc(C(C)C)cc1S(=O)(=O)Nc1ccc(Cl)cn1,inconclusive: -0.6%
14,Cc1cc(C(C)(C)C)cc(S(=O)(=O)Nc2ccc(O)c(C(=O)O)c2)c1C,inconclusive: 3.3%
15,COc1ccc(Nc2ncccc2C(=O)NCc2ccccc2)cc1,inconclusive: 5.4%
16,Cc1ccc(CN(c2ccc(C(=O)NCc3ccccn3)cc2)S(C)(=O)=O)cc1,inconclusive: 10.2%
17,COc1ccc(OC)c(C2C(C(=O)c3ccc(C)o3)=C(O)C(=O)N2CCN2CCOCC2)c1 (configuration not stated),inactive: -1%
18,O=C(CC(c1ccccc1)c1ccccc1O)N1CCCCC1 (configuration not stated),inconclusive: 1%
19,CCN(CC)CCCN=Cc1c(O)n(-c2ccccc2C)c(=O)c2ccccc12,inconclusive: 7.4%

# Structures above containing a cyano group (2):
row,Compound,inhibition
15,N#CC(=C=[N-])/C=C(\C(=O)c1ccccc1)[n+]1ccccc1,inconclusive: -37.4%
1,CCOC(=O)c1c2c([nH]c(=S)c1C#N)CCCC2,inconclusive: -2.2%

# Next part

row,Compound,inhibition
1,Cc1ccc(OCCSc2nnc(-c3cccs3)n2C)cc1,inconclusive: 0.1%
2,COC(=O)Nc1cc(C(F)(F)F)ccc1N1CCN(c2ccccc2)CC1,inconclusive: 0.3%
3,Cc1ccc([C@@H]2CC(=O)[C@@H]3CN(S(=O)(=O)c4ccc(C)cc4)[C@H](c4ccc(Cl)cc4)C[C@@H]3N2S(=O)(=O)c2ccc(Cl)cc2)cc1,inactive: 0.1%
4,C#CCOCCOCCOCCNc1nc(N2CCN(C(=O)CCCCCCCCCCNC(=O)[C@@H](CCSC)n3cc(CCO)nn3)CC2)nc(N2CCN(C(=O)CCCCCCCCCCNC(=O)[C@H](CCC(=O)O)n3cc(CCCCCN)nn3)CC2)n1,inactive: -0.7%
5,Cc1ccc(N2CC(C(=O)NCc3ccc4c(c3)OCO4)CC2=O)cc1C (configuration not stated),inconclusive: -0.3%
6,CC(CCc1ccccc1)NC(=O)c1ccccc1F (configuration not stated),inconclusive: -3.2%
7,COc1ccc(S(=O)(=O)N2CCCC2CNC(=O)C(=O)NCc2ccccc2)cc1 (configuration not stated),inconclusive: -57.7%
8,CNC(=O)Nc1ccc2nc(C)oc2c1,inconclusive: 0.2%
9,COC(=O)C1C(c2ccccc2)C(C(=O)N2CCOCC2)C1c1ccccc1 (configuration not stated),inconclusive: 0.5%
10,CCc1cc(CNC(=O)c2ccc3nc(Cc4ccc(OC)c(OC)c4)oc3c2)on1,inactive: -4.5%
11,Oc1c(C=C2N=c3ccccc3=N2)sc(=S)n1-c1ccccc1,active: 44.1%
12,Cc1nc([N+](=O)[O-])c(Br)n1Cc1ccccc1,inconclusive: 4.6%
13,CC1CC(NC(=O)CC#N)CC(C)(C)C1 (configuration not stated),inconclusive: 9.4%
14,N#C/C(=N/Nc1ccccc1F)C(=N)N1CCOCC1,inconclusive: 3.4%
15,O=C(O)c1ccccc1NC(=O)c1cc2ccccc2oc1=O,inconclusive: -1.5%
16,O=C(Nc1ccc(F)cc1)NC1CCN(Cc2nnnn2Cc2ccco2)CC1,inconclusive: 1.5%
17,COc1ccc(C(=O)N2CC(c3ccccc3)CC2=O)cc1 (configuration not stated),inconclusive: -40.8%
18,CCOc1ccc(S(=O)(=O)n2cc(-c3ccccc3)c(N)n2)cc1,inactive: -2.5%
19,O=C1C(=C2CCCCC2)SC(=S)N1Cc1ccco1,inconclusive: -2.7%
